Earlier results, collected in patent publication US8545896B2, “Compositions, kits and methods for nutrition supplementation” (Chemo S. A. France, priority 2011, dated 2013).
At least one structure is not confirmed: it was looked up by name or label, or the drawing left a doubt.

Conditions: DHA supplementation during pregnancy

Compound: CC/C=C\C/C=C\C/C=C\C/C=C\C/C=C\C/C=C\CCC(=O)O [DHA, docosahexaenoic acid]
- increase in length of gestation: about six
